# Results are given in words; binding and its absence hold for the method and conditions named. In cells and extracts the contact can be indirect. These calls come from enrichment with a bait or labelling near it, and not all partners need be listed. For part of these data: No binding means not detected with the bait. Tags and fused reporters may be left off the sequences shown.
# By UniProt entry, the sequences of proteins in these tests, tags left out.
# UniProt Q59987: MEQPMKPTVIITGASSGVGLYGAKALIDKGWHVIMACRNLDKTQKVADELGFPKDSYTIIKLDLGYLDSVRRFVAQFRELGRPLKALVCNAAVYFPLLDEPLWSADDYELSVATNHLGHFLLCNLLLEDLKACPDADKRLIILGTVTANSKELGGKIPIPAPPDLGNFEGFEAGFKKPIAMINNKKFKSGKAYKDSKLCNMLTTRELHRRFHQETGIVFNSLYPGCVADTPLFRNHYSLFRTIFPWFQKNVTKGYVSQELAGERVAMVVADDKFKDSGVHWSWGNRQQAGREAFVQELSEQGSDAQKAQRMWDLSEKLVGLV
# B1: geranylgeranyl reductase (enzyme, UniProt Q55087 1-407)
# chain: MVLRVAVVGGGPAGSSAAEILVKAGIETYLFERKLDNAKPCGGAIPLCMVDEFDLPPEIIDRRVRKMKMISPSNIEVNIGQTLKDDEYIGMCRREVLDGFLRERAEKLGTKVINGTVYKLDIPSKDSDPYTLHYADHSVGGTTGEMKILKVDVVIGADGANSRIAKAIDAGDYNYAIAFQERIRLPEDKMAYYDELAEMYVGDDVSPDFYAWVFPKYDHVAVGTGTMKVNKARIKDLQAGIRTRAAKKLEGGEIIKVEAHPIPEHPRPRRVVGRVALVGDAAGTVTKSSGEGIYFAAKSARMCAETIVATSNNGQRVPTEADLKQYIKQWDKRYGATYLVLDILQRVFYRTDATREAFVEMCSDIDVQKLTFDSYLYKTVVPANPLVQMKITAKTIGSLLRGNALAP
# How the values were obtained:
# [1] = molecular target: T1, N-terminal FLAG-tagged CycI (Synechocystis PCC 6803) (UniProt P72584); test: affinity purification with mass spectrometry; N-terminal FLAG-tagged CycI as bait in the wild-type (WT) Synechocystis background; FLAG eluates digested with trypsin/Lys-C and analysed by nanoLC-MS/MS; captured proteins quantified relative to the CycI bait
# T1 sequence: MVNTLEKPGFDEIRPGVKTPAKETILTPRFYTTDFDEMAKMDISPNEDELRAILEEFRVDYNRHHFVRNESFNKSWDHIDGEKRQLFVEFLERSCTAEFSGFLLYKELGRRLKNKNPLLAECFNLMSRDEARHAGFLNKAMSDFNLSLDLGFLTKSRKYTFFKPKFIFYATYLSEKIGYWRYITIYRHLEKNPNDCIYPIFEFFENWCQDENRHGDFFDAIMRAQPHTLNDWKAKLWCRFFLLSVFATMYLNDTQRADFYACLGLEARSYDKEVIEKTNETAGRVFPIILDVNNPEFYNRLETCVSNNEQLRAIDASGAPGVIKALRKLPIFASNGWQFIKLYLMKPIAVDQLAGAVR
# [2] = molecular target: T1, N-terminal FLAG-tagged CycI (Synechocystis PCC 6803); test: condition: only in the Δycf54 background (no Ycf54); affinity purification with mass spectrometry; N-terminal FLAG-tagged CycI as bait in the Δycf54 Synechocystis background (no Ycf54); FLAG eluates digested with trypsin/Lys-C and analysed by nanoLC-MS/MS; captured proteins quantified relative to the CycI bait
# [3] = molecular target: T1, N-terminal FLAG-tagged CycI (Synechocystis PCC 6803); test: affinity purification with mass spectrometry; N-terminal FLAG-tagged CycI as bait in the Δycf54 Synechocystis background (no Ycf54); FLAG eluates digested with trypsin/Lys-C and analysed by nanoLC-MS/MS; captured proteins quantified relative to the CycI bait
Molecule,binding [1],binding [2],binding [3]
PChlide oxidoreductase (from UniProt Q59987 1-322) (enzyme),binds,,
"3,8-divinyl (proto)chorophyllide reductase (enzyme)",binds,no binding,binds weakly
B1,binds,,binds weakly

# Source: article PMC4794507
